These are yes or no findings as the source states them, for the method shown. For part of these data: In cells and extracts the contact can be indirect. Some results given as binding are weak or reduced against the parent protein; the word gives no strength. For part of these data: Tags and fused reporters may be left off the sequences shown.

The target of experiment [1] is T1, Arabidopsis SPINDLY (SPY), wild type, full-length (Arabidopsis thaliana) (UniProt Q96301).
T1 sequence: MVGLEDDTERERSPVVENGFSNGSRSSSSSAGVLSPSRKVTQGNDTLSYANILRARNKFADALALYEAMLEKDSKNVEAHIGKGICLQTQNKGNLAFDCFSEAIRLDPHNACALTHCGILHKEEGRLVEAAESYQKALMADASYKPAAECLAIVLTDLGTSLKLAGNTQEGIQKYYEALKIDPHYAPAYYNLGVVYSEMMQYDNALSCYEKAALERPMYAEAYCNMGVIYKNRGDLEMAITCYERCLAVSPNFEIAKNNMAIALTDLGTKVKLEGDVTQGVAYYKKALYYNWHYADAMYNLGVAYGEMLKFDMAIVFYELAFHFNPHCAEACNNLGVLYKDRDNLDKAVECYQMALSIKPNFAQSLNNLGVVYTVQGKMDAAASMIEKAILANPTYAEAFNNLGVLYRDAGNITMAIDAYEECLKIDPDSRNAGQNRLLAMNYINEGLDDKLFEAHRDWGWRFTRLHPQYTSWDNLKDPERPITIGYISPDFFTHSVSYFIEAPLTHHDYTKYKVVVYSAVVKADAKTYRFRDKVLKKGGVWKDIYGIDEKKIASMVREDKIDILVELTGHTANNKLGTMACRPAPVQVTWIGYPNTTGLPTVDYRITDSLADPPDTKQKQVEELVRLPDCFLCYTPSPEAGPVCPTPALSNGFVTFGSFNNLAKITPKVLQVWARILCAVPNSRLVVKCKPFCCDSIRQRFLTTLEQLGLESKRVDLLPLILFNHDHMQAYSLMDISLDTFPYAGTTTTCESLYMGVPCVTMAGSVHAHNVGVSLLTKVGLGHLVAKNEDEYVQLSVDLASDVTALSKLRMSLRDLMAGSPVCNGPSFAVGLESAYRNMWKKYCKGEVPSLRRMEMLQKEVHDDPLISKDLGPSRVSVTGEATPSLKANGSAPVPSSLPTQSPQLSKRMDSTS
Nature of the experiment: SEC; Superdex 200 Increase 10/300 GL, 0.5 mL injected; 50 mM Tris pH 7.9, 300 mM NaCl, 0.5 mM TCEP, 2 mM benzamidine; samples incubated at 4 °C for 6 h; peak fractions on SDS-PAGE; both purified. On the technique in general: In gel filtration, larger molecules generally elute earlier.

For experiment [2], the target named is T2, SPY^WT, GST-tagged and 6His-SUMO-tagged copies co-expressed (Arabidopsis thaliana) (UniProt Q96301).
T2 sequence: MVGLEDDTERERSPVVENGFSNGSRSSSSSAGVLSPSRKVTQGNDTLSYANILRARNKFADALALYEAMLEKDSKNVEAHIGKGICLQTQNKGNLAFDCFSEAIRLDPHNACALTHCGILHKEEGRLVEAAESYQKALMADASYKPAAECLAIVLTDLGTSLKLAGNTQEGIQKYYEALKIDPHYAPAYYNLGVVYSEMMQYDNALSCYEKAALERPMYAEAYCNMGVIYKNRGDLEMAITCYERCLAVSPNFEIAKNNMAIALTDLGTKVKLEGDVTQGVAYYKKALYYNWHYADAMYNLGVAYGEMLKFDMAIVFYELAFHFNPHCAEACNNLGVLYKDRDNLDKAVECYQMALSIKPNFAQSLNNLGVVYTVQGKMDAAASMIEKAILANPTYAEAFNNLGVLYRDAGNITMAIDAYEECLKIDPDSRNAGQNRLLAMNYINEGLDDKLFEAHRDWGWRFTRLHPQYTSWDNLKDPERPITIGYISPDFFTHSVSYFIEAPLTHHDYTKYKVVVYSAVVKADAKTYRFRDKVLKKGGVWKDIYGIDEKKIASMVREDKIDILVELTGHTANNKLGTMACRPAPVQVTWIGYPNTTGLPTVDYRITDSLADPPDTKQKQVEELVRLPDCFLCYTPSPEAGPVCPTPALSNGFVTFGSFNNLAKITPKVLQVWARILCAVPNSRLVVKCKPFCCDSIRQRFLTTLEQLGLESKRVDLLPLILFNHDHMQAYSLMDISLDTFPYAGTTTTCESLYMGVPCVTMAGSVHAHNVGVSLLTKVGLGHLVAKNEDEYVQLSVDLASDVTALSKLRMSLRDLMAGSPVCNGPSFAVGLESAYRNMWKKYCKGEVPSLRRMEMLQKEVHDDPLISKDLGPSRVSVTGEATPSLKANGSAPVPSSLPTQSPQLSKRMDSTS
Nature of the experiment: pull-down; tandem affinity co-purification: 6His-SUMO-tagged SPY co-expressed with GST-tagged SPY^WT in E. coli, GST affinity purification followed by Ni2+ affinity purification.

B1: Arabidopsis DELLA truncation covering the SPY-targeting region (DELLA^1–205) (domain or fragment, UniProt Q9SLH3 1-205)
chain: MKRDHHQFQGRLSNHGTSSSSSSISKDKMMMVKKEEDGGGNMDDELLAVLGYKVRSSEMAEVALKLEQLETMMSNVQEDGLSHLATDTVHYNPSELYSWLDNMLSELNPPPLPASSNGLDPVLPSPEICGFPASDYDLKVIPGNAIYQFPAIDSSSSSNNQNKRLKSCSSPDSMVTSTSTGTQIGGVIGTTVTTTTTTTTAAGES
For the molecule B1, the binding result in experiment [1] is recorded as “no binding”.

B2: SPY^WT, GST-tagged and 6His-SUMO-tagged copies co-expressed (enzyme, UniProt Q96301 1-914)
chain: MVGLEDDTERERSPVVENGFSNGSRSSSSSAGVLSPSRKVTQGNDTLSYANILRARNKFADALALYEAMLEKDSKNVEAHIGKGICLQTQNKGNLAFDCFSEAIRLDPHNACALTHCGILHKEEGRLVEAAESYQKALMADASYKPAAECLAIVLTDLGTSLKLAGNTQEGIQKYYEALKIDPHYAPAYYNLGVVYSEMMQYDNALSCYEKAALERPMYAEAYCNMGVIYKNRGDLEMAITCYERCLAVSPNFEIAKNNMAIALTDLGTKVKLEGDVTQGVAYYKKALYYNWHYADAMYNLGVAYGEMLKFDMAIVFYELAFHFNPHCAEACNNLGVLYKDRDNLDKAVECYQMALSIKPNFAQSLNNLGVVYTVQGKMDAAASMIEKAILANPTYAEAFNNLGVLYRDAGNITMAIDAYEECLKIDPDSRNAGQNRLLAMNYINEGLDDKLFEAHRDWGWRFTRLHPQYTSWDNLKDPERPITIGYISPDFFTHSVSYFIEAPLTHHDYTKYKVVVYSAVVKADAKTYRFRDKVLKKGGVWKDIYGIDEKKIASMVREDKIDILVELTGHTANNKLGTMACRPAPVQVTWIGYPNTTGLPTVDYRITDSLADPPDTKQKQVEELVRLPDCFLCYTPSPEAGPVCPTPALSNGFVTFGSFNNLAKITPKVLQVWARILCAVPNSRLVVKCKPFCCDSIRQRFLTTLEQLGLESKRVDLLPLILFNHDHMQAYSLMDISLDTFPYAGTTTTCESLYMGVPCVTMAGSVHAHNVGVSLLTKVGLGHLVAKNEDEYVQLSVDLASDVTALSKLRMSLRDLMAGSPVCNGPSFAVGLESAYRNMWKKYCKGEVPSLRRMEMLQKEVHDDPLISKDLGPSRVSVTGEATPSLKANGSAPVPSSLPTQSPQLSKRMDSTS
Consider B2, for which the binding entry in experiment [2] is given as “binds”.

B3: 6His-SUMO-tagged SPY^K665A (enzyme, UniProt Q96301 1-914)
chain: MVGLEDDTERERSPVVENGFSNGSRSSSSSAGVLSPSRKVTQGNDTLSYANILRARNKFADALALYEAMLEKDSKNVEAHIGKGICLQTQNKGNLAFDCFSEAIRLDPHNACALTHCGILHKEEGRLVEAAESYQKALMADASYKPAAECLAIVLTDLGTSLKLAGNTQEGIQKYYEALKIDPHYAPAYYNLGVVYSEMMQYDNALSCYEKAALERPMYAEAYCNMGVIYKNRGDLEMAITCYERCLAVSPNFEIAKNNMAIALTDLGTKVKLEGDVTQGVAYYKKALYYNWHYADAMYNLGVAYGEMLKFDMAIVFYELAFHFNPHCAEACNNLGVLYKDRDNLDKAVECYQMALSIKPNFAQSLNNLGVVYTVQGKMDAAASMIEKAILANPTYAEAFNNLGVLYRDAGNITMAIDAYEECLKIDPDSRNAGQNRLLAMNYINEGLDDKLFEAHRDWGWRFTRLHPQYTSWDNLKDPERPITIGYISPDFFTHSVSYFIEAPLTHHDYTKYKVVVYSAVVKADAKTYRFRDKVLKKGGVWKDIYGIDEKKIASMVREDKIDILVELTGHTANNKLGTMACRPAPVQVTWIGYPNTTGLPTVDYRITDSLADPPDTKQKQVEELVRLPDCFLCYTPSPEAGPVCPTPALSNGFVTFGSFNNLAAITPKVLQVWARILCAVPNSRLVVKCKPFCCDSIRQRFLTTLEQLGLESKRVDLLPLILFNHDHMQAYSLMDISLDTFPYAGTTTTCESLYMGVPCVTMAGSVHAHNVGVSLLTKVGLGHLVAKNEDEYVQLSVDLASDVTALSKLRMSLRDLMAGSPVCNGPSFAVGLESAYRNMWKKYCKGEVPSLRRMEMLQKEVHDDPLISKDLGPSRVSVTGEATPSLKANGSAPVPSSLPTQSPQLSKRMDSTS
B3: the binding entry in experiment [2] is recorded as “binds”.

For the origin of these results see PMC9715652, “Structural insights into mechanism and specificity of the plant protein O-fucosyltransferase SPINDLY” (Nature Communications, 2022).
